pIC50: −log10 of the molar value. At least one structure is not confirmed: it was looked up by name or label, or the drawing left a doubt.
Columns and labels:
COX-2 = COX-2 activity in vitro (PGE2 formed, ELISA); format: biochemical, human or murine; conditions: recombinant enzyme, arachidonic acid 10 μM, pH 8.0; read-out: COX II ID50
Description: (§1) Evaluation of COX I and COX II activity in vitro
(§2) The COX-2 inhibition activity of the compounds of this invention illustrated in the Examples was determined by the following methods. a. Preparation of recombinant COX baculoviruses
(§3) Recombinant COX-1 and COX-2 were prepared as described by Gierse et al, [J. Biochem., 305, 479-84 (1995)]. A 2.0 kb fragment containing the coding region of either human or murine COX-1 or human or murine COX-2 was cloned into a BamH1 site of the baculovirus transfer vector pVL1393 (Invitrogen) to generate the baculovirus transfer vectors for COX-1 and COX-2 in a manner similar to the method of D. R. O'Reilly et al (Baculovirus Expression Vectors: A Laboratory Manual (1992)). Recombinant baculoviruses were isolated by transfecting 4 μg of baculovirus transfer vector DNA into SF9 insect cells (2×10^8) along with 200 ng of linearized baculovirus plasmid DNA by the calcium phosphate method. See M. D. Summers and G. E. Smith, A Manual of Methods for Baculovirus vectors and Insect Cell Culture Procedures, Texas Agric. Exp. Station Bull. 1555 (1987). Recombinant viruses were purified by three rounds of plaque purification and high titer (10^7 -10^8 pfu/ml) stocks of virus were prepared. For large scale production, SF9 insect cells were infected in 10 liter fermentors (0.5×10^6 /ml) with the recombinant baculovirus stock such that the multiplicity of infection was 0.1. After 72 hours the cells were centrifuged and the cell pellet homogenized in Tris/Sucrose (50 mM: 25%, pH 8.0) containing 1% 3-[(3-cholamidopropyl)dimethylammonio]-1-propanesulfonate (CHAPS). The homogenate was centrifuged at 10,000×G for 30 minutes, and the resultant supernatant was stored at -80° C. before being assayed for COX activity. […]
(§4) b. Assay for COX-1 and COX-2 activity
(§5) COX activity was assayed as PGE2 formed/μg protein/time using an ELISA to detect the prostaglandin released. CHAPS-solubilized insect cell membranes containing the appropriate COX enzyme were incubated in a potassium phosphate buffer (50 mM, pH 8.0) containing epinephrine, phenol, and heme with the addition of arachidonic acid (10 μM). Compounds were pre-incubated with the enzyme for 10-20 minutes prior to the addition of arachidonic acid. Any reaction between the arachidonic acid and the enzyme was stopped after ten minutes at 37° C./room temperature by transferring 40 μl of reaction mix into 160 μl ELISA buffer and 25 μM indomethacin. The PGE2 formed was measured by standard ELISA technology (Cayman Chemical).

COX-1 = COX-1 activity in vitro (PGE2 formed, ELISA); format: biochemical, human or murine; conditions: recombinant enzyme, arachidonic acid 10 μM, pH 8.0; read-out: COX-1 ID50
Description: as §1, §2, §3, §4, §5

pIC50 (COX-2) | pIC50 (COX-1) | SMILES
> 7.00 | 5.31 | NS(=O)(=O)c1ccc(-c2oc(C(F)F)nc2-c2ccccc2)cc1 [Example 74, 4-[2-difluoromethyl-4-phenyl-5-oxazolyl]benzenesulfonamide]
> 7.00 | 5.66 | COc1ccc(-c2oc(C(F)(F)F)nc2-c2ccc(S(N)(=O)=O)cc2)cc1F [Example 60, 4-[5-(3-fluoro-4-methoxyphenyl)-2-trifluoromethyl-4-oxazolyl]benzenesulfonamide]

The next lines start with the molecule.

SMILES | pIC50 (COX-2) | pIC50 (COX-1)
NS(=O)(=O)c1ccc(-c2nc(CC(=O)O)oc2C2CCCCC2)cc1 [Example 35, [4-(4-aminosulfonylphenyl)-5-cyclohexyl]-2-oxazoleacetic acid] | 5.10 | 4.14
CS(=O)(=O)c1ccc(-c2oc(COc3ccccc3)nc2-c2ccc(F)cc2)cc1 [Example 28, 4-(4-fluorophenyl)-5-[4-(methylsulfonyl)-phenyl]-2-phenoxymethyloxazole] | > 7.00 | < 4.00
CS(=O)(=O)c1ccc(-c2oc(COc3ccncc3)nc2-c2ccc(F)cc2)cc1 [Example 29, 4-(4-Fluorophenyl)-5-[4-(methylsulfonyl)phenyl]-2-(pyridyloxymethyl)oxazole] | 4.00 | < 4.00
